No constants are given. Whether binding was seen depends on the method and setting. Binding seen in cells or lysates may run through a third protein. Some results given as binding are weak or reduced against the parent protein; the word gives no strength.
Tests used:
[1] = target: heterogeneous nuclear ribonucleoprotein K (human (endogenous in primary human T cells)) (UniProt P61978); assay: co-IP; primary human T cells adhered to pLL- or ICAM-1-coated plates for 30 min, lysed; hnRNPH1 or hnRNPK IP, HuR blot
[2] = target: mitogen-activated protein kinase-activated protein kinase 2 (human (endogenous in Jurkat)) (UniProt P49137); assay: co-IP; Jurkat T cell lysates in IP buffer (25 mM HEPES pH 8.0, 150 mM KCl, 2.5 mM EDTA, 0.1% NP40); IP with HuR, hnRNPC or MK2 antibody overnight at 4°C, protein A/G agarose, Western blot; cells adhered to pLL or ICAM-1 for 0, 30 or 60 min; in some samples lysate treated with RNase A 30 min 37°C, or cells transfected with control, hnRNPH1 or hnRNPK siRNA
[3] = target: HuR (mouse) (mouse (endogenous in primary murine T cells)) (UniProt P70372); assay: co-IP; WT or MK2-/- primary murine T cells adhered to pLL- or ICAM-1-coated plates for 45 min, lysed; HuR IP, hnRNPC blot

By UniProt entry, the sequences of proteins in these tests, tags left out. Where a name states a change or a piece, a line headed by the entry shows the natural chain unless it says otherwise. Chains listed by the source or under a name are the forms on record and can include a tag or linker.
UniProt P49137: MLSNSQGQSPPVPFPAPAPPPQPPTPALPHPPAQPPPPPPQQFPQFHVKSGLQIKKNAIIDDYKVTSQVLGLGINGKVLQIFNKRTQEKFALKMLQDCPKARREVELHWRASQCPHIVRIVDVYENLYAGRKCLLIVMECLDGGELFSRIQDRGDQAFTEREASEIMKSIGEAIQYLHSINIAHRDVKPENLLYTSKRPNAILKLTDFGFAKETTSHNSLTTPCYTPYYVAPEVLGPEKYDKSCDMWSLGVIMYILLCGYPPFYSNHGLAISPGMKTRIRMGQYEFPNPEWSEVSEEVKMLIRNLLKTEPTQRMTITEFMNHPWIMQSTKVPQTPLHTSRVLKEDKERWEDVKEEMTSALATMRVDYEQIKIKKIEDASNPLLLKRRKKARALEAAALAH
UniProt P70372: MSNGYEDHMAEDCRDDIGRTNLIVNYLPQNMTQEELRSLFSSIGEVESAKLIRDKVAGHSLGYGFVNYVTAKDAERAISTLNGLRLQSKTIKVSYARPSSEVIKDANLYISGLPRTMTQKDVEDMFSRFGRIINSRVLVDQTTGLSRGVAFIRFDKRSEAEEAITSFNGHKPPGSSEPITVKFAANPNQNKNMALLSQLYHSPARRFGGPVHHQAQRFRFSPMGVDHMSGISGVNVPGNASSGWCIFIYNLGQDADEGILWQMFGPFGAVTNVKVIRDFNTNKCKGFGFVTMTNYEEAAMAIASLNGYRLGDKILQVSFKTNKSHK
heterogeneous nuclear ribonucleoproteins C1/C2 isoform b (P07910-2, form named): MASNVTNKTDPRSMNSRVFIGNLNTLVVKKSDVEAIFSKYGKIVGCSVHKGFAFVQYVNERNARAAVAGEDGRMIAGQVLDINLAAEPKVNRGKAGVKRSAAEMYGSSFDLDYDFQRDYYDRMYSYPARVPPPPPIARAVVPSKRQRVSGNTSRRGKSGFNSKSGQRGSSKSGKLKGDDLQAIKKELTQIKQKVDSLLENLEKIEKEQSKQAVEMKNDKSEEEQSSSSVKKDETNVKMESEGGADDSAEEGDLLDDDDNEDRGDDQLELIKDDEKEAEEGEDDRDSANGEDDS
UniProt Q9Z204: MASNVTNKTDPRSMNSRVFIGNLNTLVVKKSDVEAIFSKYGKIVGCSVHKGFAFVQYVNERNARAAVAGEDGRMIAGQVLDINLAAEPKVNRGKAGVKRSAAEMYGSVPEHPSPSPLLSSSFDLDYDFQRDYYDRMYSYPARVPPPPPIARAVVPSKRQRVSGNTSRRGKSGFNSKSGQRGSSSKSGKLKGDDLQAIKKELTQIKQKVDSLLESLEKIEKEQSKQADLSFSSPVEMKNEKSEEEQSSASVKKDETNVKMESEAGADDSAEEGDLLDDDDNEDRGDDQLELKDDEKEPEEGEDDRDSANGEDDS

Hu protein R (HuR RNA binding protein) (from UniProt Q15717 1-326)
binding [1]: binds | binding [2]: binds

heterogeneous nuclear ribonucleoproteins C1/C2 isoform b (from UniProt P07910-2 1-293)
binding [2]: binds

hnRNPC (mouse) (from UniProt Q9Z204 1-313)
binding [3]: binds

Reference: paper PMC6065199
